PubChem BioAssay AID1224826 | NIAID, 2016
Assay: 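Regulators of Tlr4 signalling leading to Tnf-alpha expression in macrophages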 (primary screen). Cell system: RAW264.7 G9 macrophages from mouse bearing reporters for p65 (GFP) and the Tnf promoter (mCherry). Knock-down reagent: siRNA pool against mouse genes, 100 nM. Duration: 16 h of LPS stimulation, after 2 days of siRNA transfection. Treatment: bacterial lipopolysaccharide (Salmonella minnesota R595), 10 ng/ml. Measurement: 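Nuclear mCherry signal of the Tnf promoter reporter measured by imaging after background removal, scaled to each plate median and turned into robust z-scores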. Direction: Tnf reporter robust z-score: higher = stronger Tnf promoter reporter signal after LPS; Tnf reporter intensity: higher = stronger Tnf promoter reporter signal. Rule for the call: 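Called active when robust z-score is at most -1.3, matching the median of the Tlr4 knock-down control, or over 3; control wells and wells with under 50 cells never active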. Meaning of the calls: active = Tnf reporter clearly lowered or raised; inactive = no clear change in Tnf reporter.
Shown is a random part of about 17,000 reagents tested. Over the whole deposit, about 1,110 (6.6%) were called active. 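Active means lowered or raised reporter signal; replicate intensities are raw and not normalised per plate.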 A number with no mark means an inactive call. Reagents against one gene are numbered here.

| gene knocked down | pool no. | Tnf reporter robust z-score | fewer than 50 cells in well | Tnf reporter intensity, replicate 1 | Tnf reporter intensity, replicate 2 |
| --- | --- | --- | --- | --- | --- |
| Bckdha (branched chain ketoacid dehydrogenase E1, alpha polypeptide) | 1 | -0.06 | enough cells in well | 144 | 155 |
| Acot9 (acyl-CoA thioesterase 9) | 1 | 2.52 | enough cells in well | 384 | 344 |
| Tmx1 (thioredoxin-related transmembrane protein 1) | 1 | 0 | enough cells in well | 119 | 61.6 |
| Fndc3b (fibronectin type III domain containing 3B) | 1 | – | fewer than 50 cells per well; well left out of calls | 184 | 37.4 |
| Paip2b (poly(A) binding protein interacting protein 2B) | 1 | -0.26 | enough cells in well | 178 | 201 |
| Dgka (diacylglycerol kinase, alpha) | 1 | -0.27 | enough cells in well | 121 | 193 |
| Aptx (aprataxin) | 1 | 0.4 | enough cells in well | 183 | 202 |
| Larp7 (La ribonucleoprotein 7, transcriptional regulator) | 1 | 3.39 (active) | enough cells in well | 406 | 343 |
| Cgb (retired record) | 1 | 0.8 | enough cells in well | 209 | 224 |
| Mturn | 1 | 1.47 | enough cells in well | 327 | 120 |
| Rsbn1 (rosbin, round spermatid basic protein 1) | 1 | 3.32 (active) | enough cells in well | 232 | 199 |
| Pbx2 (pre B cell leukemia homeobox 2) | 1 | -0.58 | enough cells in well | 171 | 164 |
| E2f1 (E2F transcription factor 1) | 1 | -0.33 | enough cells in well | 208 | 181 |
| Aoc1l3 (amine oxidase copper containing 1-like 3) | 1 | 3.7 (active) | enough cells in well | 251 | 200 |
| Tomm22 (translocase of outer mitochondrial membrane 22) | 1 | 2.16 | enough cells in well | 183 | 179 |
| Psmb1 (proteasome (prosome, macropain) subunit, beta type 1) | 1 | – | fewer than 50 cells per well; well left out of calls | 29.5 | 103 |
| Eloa (elongin A) | 1 | 0.01 | enough cells in well | 224 | 141 |
| Trappc14 (trafficking protein particle complex 14) | 1 | -1.18 | enough cells in well | 94.9 | 158 |
| Txndc9 (thioredoxin domain containing 9) | 1 | – | fewer than 50 cells per well; well left out of calls | 65.2 | 40.2 |
| Zbp1 (Z-DNA binding protein 1) | 1 | 1.27 | enough cells in well | 247 | 98.9 |
| Lsm8 (LSM8 homolog, U6 small nuclear RNA associated) | 1 | -2.06 (active) | enough cells in well | 63.4 | 26.1 |
| Alyref2 (Aly/REF export factor 2) | 1 | -0.77 | enough cells in well | 94.7 | 94.3 |
| Med12l (mediator complex subunit 12-like) | 1 | -0.78 | enough cells in well | 115 | 132 |
| Kpnb1 (karyopherin subunit beta 1) | 1 | -1.61 (active) | enough cells in well | 111 | 47.6 |
| Stradb (STE20-related kinase adaptor beta) | 1 | 0.11 | enough cells in well | 159 | 202 |
| Dtx1 (deltex 1, E3 ubiquitin ligase) | 1 | -0.9 | enough cells in well | 197 | 108 |
| Rpl22l1 (ribosomal protein L22 like 1) | 1 | – | fewer than 50 cells per well; well left out of calls | 121 | 36.1 |
| H2-K1 (histocompatibility 2, K1, K region) | 1 | 0.84 | enough cells in well | 272 | 271 |
| H2-K1 (histocompatibility 2, K1, K region) | 2 | -0.72 | enough cells in well | 149 | 106 |
| Twist2 (twist basic helix-loop-helix transcription factor 2) | 1 | – | fewer than 50 cells per well; well left out of calls | 43.9 | 0 |
| Lrrn4 (leucine rich repeat neuronal 4) | 1 | -1.74 (active) | enough cells in well | 77.8 | 61 |
| Thsd1 (thrombospondin, type I, domain 1) | 1 | 0.03 | enough cells in well | 117 | 95.4 |
| 6030445D17Rik (RIKEN cDNA 6030445D17 gene) | 1 | -0.53 | enough cells in well | 161 | 106 |
| Narf (nuclear prelamin A recognition factor) | 1 | 0.52 | enough cells in well | 185 | 87.1 |
| Ggnbp2 (gametogenetin binding protein 2) | 1 | 1.81 | enough cells in well | 160 | 246 |
| Spata3 (spermatogenesis associated 3) | 1 | – | fewer than 50 cells per well; well left out of calls | 67.8 | 93.3 |
| Cd164 (CD164 antigen) | 1 | -0.81 | enough cells in well | 179 | 151 |

The list goes on (2 carried over from the part before).
| gene knocked down | pool no. | Tnf reporter robust z-score | fewer than 50 cells in well | Tnf reporter intensity, replicate 1 | Tnf reporter intensity, replicate 2 |
| --- | --- | --- | --- | --- | --- |
| Spata3 (spermatogenesis associated 3) | 1 | – | fewer than 50 cells per well; well left out of calls | 67.8 | 93.3 |
| Cd164 (CD164 antigen) | 1 | -0.81 | enough cells in well | 179 | 151 |
| Zfyve27 (zinc finger, FYVE domain containing 27) | 1 | 1.05 | enough cells in well | 168 | 170 |
| E130114P18Rik (RIKEN cDNA E130114P18 gene) | 1 | 1.75 | enough cells in well | 398 | 117 |
| Sde2 (SDE2 telomere maintenance homolog (S. pombe)) | 1 | -0.99 | enough cells in well | 147 | 127 |
| Orc5 (origin recognition complex, subunit 5) | 1 | 0.55 | enough cells in well | 191 | 142 |
| Kcnj11 | 1 | 1.71 | enough cells in well | 376 | 238 |
| Dgat2 (diacylglycerol O-acyltransferase 2) | 1 | 1.58 | enough cells in well | 296 | 241 |
| Cggbp1 (CGG triplet repeat binding protein 1) | 1 | 0.7 | enough cells in well | 380 | 185 |
| Cstf2 (cleavage stimulation factor, 3' pre-RNA subunit 2) | 1 | 0.83 | enough cells in well | 252 | 209 |
| Or4n5 (olfactory receptor family 4 subfamily N member 5) | 1 | 0.09 | enough cells in well | 102 | 120 |
| Smc2 (structural maintenance of chromosomes 2) | 1 | – | fewer than 50 cells per well; well left out of calls | 0 | 65.8 |
| Unc50 (unc-50 homolog) | 1 | – | fewer than 50 cells per well; well left out of calls | 123 | 81.8 |
| Mrpl54 (mitochondrial ribosomal protein L54) | 1 | 2.14 | enough cells in well | 266 | 252 |
| Pnpla3 (patatin-like phospholipase domain containing 3) | 1 | -0.51 | enough cells in well | 146 | 180 |
| Prokr2 (prokineticin receptor 2) | 1 | -0.09 | enough cells in well | 222 | 262 |
| Setd1a (SET domain containing 1A) | 1 | 1.68 | enough cells in well | 392 | 156 |
| Setd1a (SET domain containing 1A) | 2 | -0.26 | enough cells in well | 143 | 242 |
| Bace2 (beta-site APP-cleaving enzyme 2) | 1 | 0.75 | enough cells in well | 255 | 264 |
| Herpud1 | 1 | -0.16 | enough cells in well | 231 | 173 |
| Vmn1r43 (vomeronasal 1 receptor 43) | 1 | – | fewer than 50 cells per well; well left out of calls | 34.6 | 39.2 |
| Tiprl (TIP41, TOR signalling pathway regulator-like (S. cerevisiae)) | 1 | 1.99 | enough cells in well | 335 | 149 |
| Serinc3 (serine incorporator 3) | 1 | -0.62 | enough cells in well | 193 | 101 |
